Reference: paper PMC9056525
Results are given in words; binding and its absence hold for the method and conditions named. Binding seen in cells or lysates may run through a third protein. Binding can be weak; no strength is given.

Columns and labels:
[1] = molecular target: T1, UBA (ubiquitin associated) region of OTUD3 (human) (UniProt Q5T2D3); experiment: co-IP; exogenous proteins and fragments in transfected cells; HEPES lysis buffer (20 mM HEPES pH 7.2, 50 mM NaCl, 0.5% Triton X-100, 1 mM NaF, 1 mM dithiothreitol), indicated primary antibody and protein A/G agarose at 4 °C, four washes, immunoblot
T1 sequence: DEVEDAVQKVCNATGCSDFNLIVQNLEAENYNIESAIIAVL

[2] = molecular target: T2, F box and leucine-rich repeat protein 5 (FBXL5) (UniProt Q9UKA1); experiment: as above
T2 sequence: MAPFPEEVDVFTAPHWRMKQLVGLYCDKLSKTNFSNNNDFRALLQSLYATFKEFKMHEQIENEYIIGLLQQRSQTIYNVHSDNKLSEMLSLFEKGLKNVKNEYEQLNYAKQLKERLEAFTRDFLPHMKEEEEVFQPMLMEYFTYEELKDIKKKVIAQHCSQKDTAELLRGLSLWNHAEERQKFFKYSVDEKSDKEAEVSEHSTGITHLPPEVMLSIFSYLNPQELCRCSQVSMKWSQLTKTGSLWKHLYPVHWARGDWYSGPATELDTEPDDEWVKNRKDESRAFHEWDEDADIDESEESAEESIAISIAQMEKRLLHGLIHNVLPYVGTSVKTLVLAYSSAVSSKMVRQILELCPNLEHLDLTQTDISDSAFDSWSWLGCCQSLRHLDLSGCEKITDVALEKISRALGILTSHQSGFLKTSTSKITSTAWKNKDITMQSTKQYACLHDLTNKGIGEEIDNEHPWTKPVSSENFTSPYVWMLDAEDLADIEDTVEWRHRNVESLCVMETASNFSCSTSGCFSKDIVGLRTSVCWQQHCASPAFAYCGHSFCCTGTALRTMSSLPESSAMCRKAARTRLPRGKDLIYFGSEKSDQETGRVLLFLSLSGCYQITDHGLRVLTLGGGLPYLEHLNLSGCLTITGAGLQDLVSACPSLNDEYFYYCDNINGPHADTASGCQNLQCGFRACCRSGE

binding [1] | binding [2] | Substance
binds |  | D2 region of IRP2 (domain or fragment)
binds | binds | D3 region of IRP2 (domain or fragment)
